No constants are given. Whether binding was seen depends on the method and setting. In cells and extracts the contact can be indirect. Here binding means that the protein was enriched with, or labelled near, the bait; the list need not be complete.
Target: TOPBP1, bait of the mass spectrometric analysis of TOPBP1-associated proteins (UniProt Q92547)
Test: affinity purification with mass spectrometry; mass spectrometric analysis of TOPBP1-associated proteins, in the presence and absence of DNA damage

Chains of the proteins cited; added tags and fusions are not shown.
UniProt Q92547: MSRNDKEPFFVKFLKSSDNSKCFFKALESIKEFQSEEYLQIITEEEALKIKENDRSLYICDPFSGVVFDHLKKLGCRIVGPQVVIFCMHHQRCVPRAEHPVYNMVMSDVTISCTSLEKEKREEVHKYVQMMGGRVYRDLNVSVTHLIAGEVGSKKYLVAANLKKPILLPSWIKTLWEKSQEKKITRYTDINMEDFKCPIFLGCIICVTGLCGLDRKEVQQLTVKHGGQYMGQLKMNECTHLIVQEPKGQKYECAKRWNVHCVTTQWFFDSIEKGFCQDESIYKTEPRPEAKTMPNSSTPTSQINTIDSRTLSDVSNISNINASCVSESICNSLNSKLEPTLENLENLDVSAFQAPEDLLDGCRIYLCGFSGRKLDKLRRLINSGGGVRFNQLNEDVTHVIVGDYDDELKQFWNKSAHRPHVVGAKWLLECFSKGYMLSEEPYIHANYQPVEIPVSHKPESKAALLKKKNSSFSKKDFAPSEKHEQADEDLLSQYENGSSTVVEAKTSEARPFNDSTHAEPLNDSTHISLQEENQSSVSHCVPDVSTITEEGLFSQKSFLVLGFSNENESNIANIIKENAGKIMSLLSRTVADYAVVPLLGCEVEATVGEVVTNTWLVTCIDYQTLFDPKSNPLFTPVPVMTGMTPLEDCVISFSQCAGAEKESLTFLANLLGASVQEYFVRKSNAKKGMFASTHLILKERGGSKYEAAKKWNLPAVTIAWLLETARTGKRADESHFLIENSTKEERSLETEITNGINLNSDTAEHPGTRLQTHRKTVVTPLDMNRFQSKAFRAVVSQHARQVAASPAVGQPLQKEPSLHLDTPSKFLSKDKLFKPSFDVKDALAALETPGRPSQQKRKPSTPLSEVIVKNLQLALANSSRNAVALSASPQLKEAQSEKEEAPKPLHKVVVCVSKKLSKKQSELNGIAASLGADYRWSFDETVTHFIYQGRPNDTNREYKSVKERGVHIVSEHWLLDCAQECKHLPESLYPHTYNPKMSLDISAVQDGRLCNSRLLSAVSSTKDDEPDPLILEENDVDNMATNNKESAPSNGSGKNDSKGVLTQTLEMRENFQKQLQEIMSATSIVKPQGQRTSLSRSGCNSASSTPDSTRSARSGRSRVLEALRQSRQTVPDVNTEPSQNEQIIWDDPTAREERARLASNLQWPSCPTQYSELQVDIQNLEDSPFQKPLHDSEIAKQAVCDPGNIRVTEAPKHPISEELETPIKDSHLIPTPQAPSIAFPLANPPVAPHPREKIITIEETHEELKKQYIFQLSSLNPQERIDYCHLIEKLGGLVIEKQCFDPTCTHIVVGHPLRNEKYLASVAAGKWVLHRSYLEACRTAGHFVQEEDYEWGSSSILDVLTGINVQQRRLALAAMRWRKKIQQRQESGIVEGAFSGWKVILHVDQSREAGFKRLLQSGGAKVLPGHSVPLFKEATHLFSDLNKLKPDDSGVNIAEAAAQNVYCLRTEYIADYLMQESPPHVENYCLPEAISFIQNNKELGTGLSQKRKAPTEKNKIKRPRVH

B1: Treacle found by mass spectrometry among TOPBP1-associated proteins (protein, UniProt Q13428 1-1488)
chain: MAEARKRRELLPLIYHHLLRAGYVRAAREVKEQSGQKCFLAQPVTLLDIYTHWQQTSELGRKRKAEEDAALQAKKTRVSDPISTSESSEEEEEAEAETAKATPRLASTNSSVLGADLPSSMKEKAKAETEKAGKTGNSMPHPATGKTVANLLSGKSPRKSAEPSANTTLVSETEEEGSVPAFGAAAKPGMVSAGQADSSSEDTSSSSDETDVEGKPSVKPAQVKASSVSTKESPARKAAPAPGKVGDVTPQVKGGALPPAKRAKKPEEESESSEEGSESEEEAPAGTRSQVKASEKILQVRAASAPAKGTPGKGATPAPPGKAGAVASQTKAGKPEEDSESSSEESSDSEEETPAAKALLQAKASGKTSQVGAASAPAKESPRKGAAPAPPGKTGPAVAKAQAGKREEDSQSSSEESDSEEEAPAQAKPSGKAPQVRAASAPAKESPRKGAAPAPPRKTGPAAAQVQVGKQEEDSRSSSEESDSDREALAAMNAAQVKPLGKSPQVKPASTMGMGPLGKGAGPVPPGKVGPATPSAQVGKWEEDSESSSEESSDSSDGEVPTAVAPAQEKSLGNILQAKPTSSPAKGPPQKAGPVAVQVKAEKPMDNSESSEESSDSADSEEAPAAMTAAQAKPALKIPQTKACPKKTNTTASAKVAPVRVGTQAPRKAGTATSPAGSSPAVAGGTQRPAEDSSSSEESDSEEEKTGLAVTVGQAKSVGKGLQVKAASVPVKGSLGQGTAPVLPGKTGPTVTQVKAEKQEDSESSEEESDSEEAAASPAQVKTSVKKTQAKANPAAARAPSAKGTISAPGKVVTAAAQAKQRSPSKVKPPVRNPQNSTVLARGPASVPSVGKAVATAAQAQTGPEEDSGSSEEESDSEEEAETLAQVKPSGKTHQIRAALAPAKESPRKGAAPTPPGKTGPSAAQAGKQDDSGSSSEESDSDGEAPAAVTSAQVIKPPLIFVDPNRSPAGPAATPAQAQAASTPRKARASESTARSSSSESEDEDVIPATQCLTPGIRTNVVTMPTAHPRIAPKASMAGASSSKESSRISDGKKQEGPATQVSKKNPASLPLTQAALKVLAQKASEAQPPVARTQPSSGVDSAVGTLPATSPQSTSVQAKGTNKLRKPKLPEVQQATKAPESSDDSEDSSDSSSGSEEDGEGPQGAKSAHTLGPTPSRTETLVEETAAESSEDDVVAPSQSLLSGYMTPGLTPANSQASKATPKLDSSPSVSSTLAAKDDPDGKQEAKPQQAAGMLSPKTGGKEAASGTTPQKSRKPKKGAGNPQASTLALQSNITQCLLGQPWPLNEAQVQASVVKVLTELLEQERKKVVDTTKESSRKGWESRKRKLSGDQPAARTPRSKKKKKLGAGEGGEASVSPEKTSTTSKGKAKRDKASGDVKEKKGKGSLGSQGAKDEPEEELQKGMGTVEGGDQSNPKSKKEKKKSDKRKKDKEKKEKKKKAKKASTKDSESPSQKKKKKKKKTAEQTV
binding: binds

From article PMC6949271
